Values of other authors, collected in US20060130162A1, “Shrimp and the production thereof” (priority 2002, published 2006).

Tested on: shrimp
Conditions: Boyle et al. 1992b; cited from earlier work

Row | Compound | Level present in the shrimp that can impart full fresh shrimp flavor
1 | Oc1c(Br)cc(Br)cc1Br [2,4,6-tribromophenol] | 20 ppb
2 | Oc1c(Br)cccc1Br [2,6-dibromophenol] | 4 ppb
3 | Oc1ccccc1Br [2-bromophenol] | 20 ppb
4 | Oc1cccc(Br)c1 [3-bromophenol] | 40 ppb
